Experimental data from paper PMC9741252, “Novel Nanomolar Allosteric Modulators of AMPA Receptor of Bis(pyrimidine) Series: Synthesis, Biotesting and SAR Analysis” (Molecules, 2022).

Tested on: T1, AMPA receptor (AMPAR)
T1 construct: gene Gria1; native AMPA receptors in freshly isolated single cerebellar Purkinje neurons of 12-15-day-old rats; subunit composition not determined
Experiment: whole-cell patch clamp, kainate-induced currents, Purkinje neurons
Assay type: cell-based, Rattus norvegicus
Settings: kainate as agonist (10^-6-10^-4 M)

[1] = positive allosteric modulator, n = 4 neurons
[2] = positive allosteric modulator, n = 3 neurons
[3] = positive allosteric modulator, n = 5 neurons

In the case of `c1nc2c(c(Oc3ccc(Oc4ncnc5c4CCCC5)cc3)n1)CCCC2` [1f, 1,4-Bis((5,6,7,8-tetrahydroquinazolin-4-yl)oxy)benzene], the “Currents (%) for Various Concentrations of Compounds (M, Control = 100%) / 10^-9” value (shortened to “Currents (%) … (M, Control = 100%) / 10^-9”) [1] is reported as 166 ± 12%.
In the case of `Cc1nc2c(c(Oc3ccc(Oc4nc(C)nc5c4CCC5)cc3)n1)CCC2` [1g, 1,4-Bis((2-methyl-6,7-dihydro-5H-cyclopenta[d]pyrimidin-4-yl)oxy)benzene], the “Currents (%) … (M, Control = 100%) / 10^-9” value [2] is reported as 118 ± 4%.
`Cc1nc2c(c(Oc3ccc(Oc4nc(C)nc5c4CCCCC5)cc3)n1)CCCCC2` [1h, 1,4-Bis((2-methyl-6,7,8,9-tetrahydro-5H-cyclohepta[d]pyrimidin-4-yl)oxy)benzene] was tested, and the “Currents (%) … (M, Control = 100%) / 10^-9” value [3] was 153 ± 9%.
In the case of `Cc1nc(Oc2ccc(Oc3cc(C(C)(C)C)nc(C)n3)cc2)cc(C(C)(C)C)n1` [1i, 1,4-Bis((6-(tert-butyl)-2-methylpyrimidin-4-yl)oxy)benzene], the “Currents (%) … (M, Control = 100%) / 10^-9” value [3] is reported as 151 ± 12%.
`Cc1nc2c(c(Oc3ccc(Oc4nc(C)nc5c4CCC5)cc3)n1)CCCC2` [1j, 2-Methyl-4-(4-((2-methyl-6,7-dihydro-5H-cyclopenta[d]pyrimidin-4-yl)oxy)phenoxy)-5,6,7,8-tetrahydroquinazoline] was tested, and the “Currents (%) … (M, Control = 100%) / 10^-9” value (negative allosteric modulator, n = 6 neurons) was 71 ± 4%.
For `Cc1nc2c(c(Oc3ccc(Oc4nc(C)nc5c4CCCC5)cc3)n1)CCCCC2` [1k, 2-Methyl-4-(4-((2-methyl-5,6,7,8-tetrahydroquinazolin-4-yl)oxy)phenoxy)-6,7,8,9-tetrahydro-5H-cyclohepta[d]pyrimidine], the “Currents (%) … (M, Control = 100%) / 10^-9” value [3] was 177 ± 6%.
In the case of `Cc1nc(Oc2ccc(Oc3nc(C)nc4c3CCCC4)cc2)cc(C(C)(C)C)n1` [1l, 4-(4-((6-(tert-Butyl)-2-methylpyrimidin-4-yl)oxy)phenoxy)-2-methyl-5,6,7,8-tetrahydroquinazoline], the “Currents (%) … (M, Control = 100%) / 10^-9” value [1] is reported as 129 ± 6%.
In the case of `Cc1nc(Oc2ccc(Oc3nc(C)nc4c3CCC4)cc2)cc(C(C)(C)C)n1` [1m, 4-(4-((6-(tert-Butyl)-2-methylpyrimidin-4-yl)oxy)phenoxy)-2-methyl-6,7-dihydro-5H-cyclopenta[d]pyrimidine], the “Currents (%) … (M, Control = 100%) / 10^-9” value [1] is reported as 119 ± 9%.
For `Cc1nc(Oc2ccc(Oc3nc(C)nc4c3CCCCC4)cc2)cc(C(C)(C)C)n1` [1n, 4-(4-((6-(tert-Butyl)-2-methylpyrimidin-4-yl)oxy)phenoxy)-2-methyl-6,7,8,9-tetrahydro-5H-cyclohepta[d]pyrimidine], the “Currents (%) … (M, Control = 100%) / 10^-9” value [2] was 138 ± 6%.
`Cc1nc2c(c(Oc3ccc(Oc4nc(C)[n+]([O-])c5c4CCCC5)cc3)n1)CCCC2` [1o, 2-Methyl-4-(4-((2-methyl-5,6,7,8-tetrahydroquinazolin-4-yl)oxy)phenoxy)-5,6,7,8-tetrahydroquinazoline 1-Oxide] was tested, and the “Currents (%) … (M, Control = 100%) / 10^-9” value [3] was 161 ± 9%.
For `Cc1nc(Oc2ccc(Oc3nc(C)[n+]([O-])c4c3CCCC4)cc2)c2c([n+]1[O-])CCCC2` [1p, 4,4′-[1,4-Phenylenebis(oxy)]bis(2-methyl-5,6,7,8-tetrahydroquinazoline) 1,1′-Dioxide], the “Currents (%) … (M, Control = 100%) / 10^-9” value [1] was 133 ± 11%.
